{
  "sequences": {"note": "Chains of the proteins cited; added tags and fusions are not shown. Residues count along the entry.", "UniProt Q9HXN1, residues 33-490": "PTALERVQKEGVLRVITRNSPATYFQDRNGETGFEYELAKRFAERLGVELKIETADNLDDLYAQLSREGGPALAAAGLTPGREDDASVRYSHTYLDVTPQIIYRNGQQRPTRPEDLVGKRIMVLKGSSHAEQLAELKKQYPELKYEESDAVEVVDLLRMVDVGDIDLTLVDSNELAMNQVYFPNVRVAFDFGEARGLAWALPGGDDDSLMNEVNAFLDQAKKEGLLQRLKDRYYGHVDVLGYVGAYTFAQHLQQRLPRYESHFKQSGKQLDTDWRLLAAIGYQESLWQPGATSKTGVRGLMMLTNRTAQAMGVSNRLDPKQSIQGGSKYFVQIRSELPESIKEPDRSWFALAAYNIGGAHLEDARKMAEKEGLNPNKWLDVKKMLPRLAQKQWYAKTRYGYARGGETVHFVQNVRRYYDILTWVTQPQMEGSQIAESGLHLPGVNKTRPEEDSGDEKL", "UniProt Q9I788": "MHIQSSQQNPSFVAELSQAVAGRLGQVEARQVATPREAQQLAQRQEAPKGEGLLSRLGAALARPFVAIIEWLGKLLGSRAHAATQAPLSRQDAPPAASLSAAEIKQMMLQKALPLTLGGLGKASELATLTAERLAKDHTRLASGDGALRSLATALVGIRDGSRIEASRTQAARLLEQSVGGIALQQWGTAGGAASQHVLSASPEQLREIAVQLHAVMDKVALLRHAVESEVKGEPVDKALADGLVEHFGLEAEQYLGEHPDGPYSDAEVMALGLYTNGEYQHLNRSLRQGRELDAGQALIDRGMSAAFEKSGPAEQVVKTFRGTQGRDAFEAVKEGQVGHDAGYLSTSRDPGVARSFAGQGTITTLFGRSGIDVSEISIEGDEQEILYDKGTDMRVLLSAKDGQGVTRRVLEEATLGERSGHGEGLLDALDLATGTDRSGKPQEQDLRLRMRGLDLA", "UniProt Q07806": "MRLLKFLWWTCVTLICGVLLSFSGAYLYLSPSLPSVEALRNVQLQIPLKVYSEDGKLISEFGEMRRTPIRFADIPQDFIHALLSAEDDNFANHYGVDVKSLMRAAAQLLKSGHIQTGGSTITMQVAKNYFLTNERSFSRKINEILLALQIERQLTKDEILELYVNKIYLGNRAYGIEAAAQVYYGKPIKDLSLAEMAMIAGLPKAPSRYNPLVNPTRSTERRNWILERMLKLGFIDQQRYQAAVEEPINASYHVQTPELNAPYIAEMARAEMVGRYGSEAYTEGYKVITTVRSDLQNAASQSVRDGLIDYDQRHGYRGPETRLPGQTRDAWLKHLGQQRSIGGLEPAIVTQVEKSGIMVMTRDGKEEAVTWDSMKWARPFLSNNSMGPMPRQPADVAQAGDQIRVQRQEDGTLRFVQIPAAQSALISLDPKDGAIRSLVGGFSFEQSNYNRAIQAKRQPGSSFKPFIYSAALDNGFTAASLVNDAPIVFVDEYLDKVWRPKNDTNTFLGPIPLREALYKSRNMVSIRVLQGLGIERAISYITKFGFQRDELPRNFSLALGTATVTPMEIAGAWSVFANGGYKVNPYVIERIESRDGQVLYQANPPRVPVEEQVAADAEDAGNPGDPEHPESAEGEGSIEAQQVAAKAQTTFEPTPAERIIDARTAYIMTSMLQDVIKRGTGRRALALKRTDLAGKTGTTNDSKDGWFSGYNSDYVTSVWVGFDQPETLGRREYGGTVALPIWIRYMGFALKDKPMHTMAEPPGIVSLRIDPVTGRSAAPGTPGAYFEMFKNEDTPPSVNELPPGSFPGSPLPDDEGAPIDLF"},
  "source": "paper PMC9712689",
  "key": {"[1]": {"biological_target": "RlpA-Δ32 (rare lipoprotein A), N-terminally His-tagged (P. aeruginosa PAO1) (UniProt Q9X6V6)", "experiment": "affinity purification with mass spectrometry; only the target purified"}, "[2]": {"biological_target": "RlpA-Δ32 (rare lipoprotein A), N-terminally His-tagged (P. aeruginosa PAO1) (UniProt Q9X6V6)", "experiment": "affinity purification with mass spectrometry; His-tagged RlpA-Δ32 incubated with PAO1 proteome overnight at 4 °C, cross-linked with BS^3, then captured on Ni-NTA resin; only the target purified"}, "[3]": {"biological_target": "MltA, N-terminal His-tagged construct (P. aeruginosa) (UniProt Q9I4B6)", "experiment": "affinity purification with mass spectrometry; N-terminally His-tagged LT on Ni-NTA resin incubated with the soluble or the 0.5% NP-40-solubilised membrane proteome of P. aeruginosa PAO1, 4 °C overnight; eluted with 500 mM imidazole; no cross-linker; only the target purified"}, "[4]": {"biological_target": "MltB, N-terminal His-tagged construct (P. aeruginosa) (UniProt Q9HVX3)", "experiment": "affinity purification with mass spectrometry; N-terminally His-tagged LT on Ni-NTA resin incubated with the soluble or the 0.5% NP-40-solubilised membrane proteome of P. aeruginosa PAO1, 4 °C overnight; eluted with 500 mM imidazole; no cross-linker; only the target purified"}, "[5]": {"biological_target": "MltD, N-terminal His-tagged construct (P. aeruginosa) (UniProt Q9I2T2)", "experiment": "affinity purification with mass spectrometry; N-terminally His-tagged LT on Ni-NTA resin incubated with the soluble or the 0.5% NP-40-solubilised membrane proteome of P. aeruginosa PAO1, 4 °C overnight; eluted with 500 mM imidazole; no cross-linker; only the target purified"}, "[6]": {"biological_target": "MltF, N-terminal His-tagged construct (P. aeruginosa) (UniProt Q9HXN1)", "experiment": "affinity purification with mass spectrometry; N-terminally His-tagged LT on Ni-NTA resin incubated with the soluble or the 0.5% NP-40-solubilised membrane proteome of P. aeruginosa PAO1, 4 °C overnight; eluted with 500 mM imidazole; no cross-linker; only the target purified"}, "[7]": {"biological_target": "MltF2, N-terminal His-tagged construct (P. aeruginosa) (UniProt Q9HZY1)", "experiment": "affinity purification with mass spectrometry; N-terminally His-tagged LT on Ni-NTA resin incubated with the soluble or the 0.5% NP-40-solubilised membrane proteome of P. aeruginosa PAO1, 4 °C overnight; eluted with 500 mM imidazole; no cross-linker; only the target purified"}, "[8]": {"biological_target": "MltG, N-terminal His-tagged construct (P. aeruginosa) (UniProt Q9HZN7)", "experiment": "affinity purification with mass spectrometry; N-terminally His-tagged LT on Ni-NTA resin incubated with the soluble or the 0.5% NP-40-solubilised membrane proteome of P. aeruginosa PAO1, 4 °C overnight; eluted with 500 mM imidazole; no cross-linker; only the target purified"}, "[9]": {"biological_target": "RlpA-Δ32 (rare lipoprotein A), N-terminally His-tagged (P. aeruginosa PAO1) (UniProt Q9X6V6)", "experiment": "affinity purification with mass spectrometry; N-terminally His-tagged LT on Ni-NTA resin incubated with the soluble or the 0.5% NP-40-solubilised membrane proteome of P. aeruginosa PAO1, 4 °C overnight; eluted with 500 mM imidazole; no cross-linker; only the target purified"}, "[10]": {"biological_target": "Slt, N-terminal His-tagged construct (P. aeruginosa) (UniProt Q9HZI6)", "experiment": "affinity purification with mass spectrometry; N-terminally His-tagged LT on Ni-NTA resin incubated with the soluble or the 0.5% NP-40-solubilised membrane proteome of P. aeruginosa PAO1, 4 °C overnight; eluted with 500 mM imidazole; no cross-linker; only the target purified"}, "[11]": {"biological_target": "MltF2, N-terminal His-tagged construct (P. aeruginosa) (UniProt Q9HZY1)", "experiment": "affinity purification with mass spectrometry; only the target purified"}},
  "note": "No constants are given. Whether binding was seen depends on the method and setting. In cells and extracts the contact can be indirect. A yes stands for co-enrichment or nearness to the bait. Other partners may have been found.",
  "data": [
    {"substance": "PvdL (from UniProt Q9I157)", "values": [
      {"measurement": "binding", "setting": "[1]", "value": "binds"}
    ]},
    {"substance": "ExoT (from UniProt Q9I788 1-457)", "values": [
      {"measurement": "binding", "setting": "[1]", "value": "binds"}
    ]},
    {"substance": "PA4063 (from UniProt Q9HWW5)", "values": [
      {"measurement": "binding", "setting": "[1]", "value": "binds"}
    ]},
    {"substance": "TypA (from UniProt Q9HU67)", "values": [
      {"measurement": "binding", "setting": "[2]", "value": "binds"},
      {"measurement": "binding", "setting": "[3]", "value": "binds"},
      {"measurement": "binding", "setting": "[4]", "value": "binds"},
      {"measurement": "binding", "setting": "[5]", "value": "binds"},
      {"measurement": "binding", "setting": "[6]", "value": "binds"},
      {"measurement": "binding", "setting": "[7]", "value": "binds"},
      {"measurement": "binding", "setting": "[8]", "value": "binds"},
      {"measurement": "binding", "setting": "[9]", "value": "binds"},
      {"measurement": "binding", "setting": "[10]", "value": "binds"}
    ]},
    {"substance": "MigA (from UniProt Q9I5M1)", "values": [
      {"measurement": "binding", "setting": "[1]", "value": "binds"}
    ]},
    {"substance": "PA3020 (from UniProt Q9HZI6)", "values": [
      {"measurement": "binding", "setting": "[7]", "value": "binds"},
      {"measurement": "binding", "setting": "[8]", "value": "binds"},
      {"measurement": "binding", "setting": "[10]", "value": "binds"}
    ]},
    {"substance": "PA3999 (from UniProt G3XD74)", "values": [
      {"measurement": "binding", "setting": "[6]", "value": "binds"},
      {"measurement": "binding", "setting": "[8]", "value": "binds"},
      {"measurement": "binding", "setting": "[10]", "value": "binds"}
    ]},
    {"substance": "MltF (from UniProt Q9HXN1 33-490)", "values": [
      {"measurement": "binding", "setting": "[3]", "value": "binds"},
      {"measurement": "binding", "setting": "[4]", "value": "binds"},
      {"measurement": "binding", "setting": "[5]", "value": "binds"},
      {"measurement": "binding", "setting": "[7]", "value": "binds"},
      {"measurement": "binding", "setting": "[8]", "value": "binds"},
      {"measurement": "binding", "setting": "[9]", "value": "binds"},
      {"measurement": "binding", "setting": "[10]", "value": "binds"}
    ]},
    {"substance": "PA2854 (from UniProt Q9HZZ0)", "values": [
      {"measurement": "binding", "setting": "[11]", "value": "binds"},
      {"measurement": "binding", "setting": "[1]", "value": "binds"}
    ]},
    {"substance": "Wzz (from UniProt G3XCY2)", "values": [
      {"measurement": "binding", "setting": "[1]", "value": "binds"}
    ]},
    {"substance": "PBP1a (from UniProt Q07806 1-822)", "values": [
      {"measurement": "binding", "setting": "[9]", "value": "binds"}
    ]}
  ]
}
